{"source": "paper PMC8593141", "biological_target": "T1, mouse Kv4.2 channel with GFP fused to the C-terminus (Kv4.2g) (mouse), Q9Z0V2", "T1 chain": "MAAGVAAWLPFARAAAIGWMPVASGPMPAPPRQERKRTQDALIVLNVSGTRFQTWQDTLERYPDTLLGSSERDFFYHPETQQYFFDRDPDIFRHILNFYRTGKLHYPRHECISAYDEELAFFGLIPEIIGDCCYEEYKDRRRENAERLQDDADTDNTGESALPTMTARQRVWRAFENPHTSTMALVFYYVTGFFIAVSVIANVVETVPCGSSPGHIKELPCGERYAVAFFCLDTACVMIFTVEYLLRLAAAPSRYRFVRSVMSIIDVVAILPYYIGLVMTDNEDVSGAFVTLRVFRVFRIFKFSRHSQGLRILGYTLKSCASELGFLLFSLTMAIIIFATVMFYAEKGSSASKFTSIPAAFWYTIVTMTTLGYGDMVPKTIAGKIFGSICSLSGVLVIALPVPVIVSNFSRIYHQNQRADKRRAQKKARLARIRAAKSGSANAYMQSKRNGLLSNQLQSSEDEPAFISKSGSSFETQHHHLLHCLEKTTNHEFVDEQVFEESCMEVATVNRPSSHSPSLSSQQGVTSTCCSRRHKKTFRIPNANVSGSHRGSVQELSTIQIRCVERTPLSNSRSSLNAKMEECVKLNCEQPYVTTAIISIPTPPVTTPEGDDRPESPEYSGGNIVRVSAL", "assay": "co-IP; preliminary immunoprecipitation from HEK cells co-transfected with Kv4.2g, HA-KChIP2a and HA-DPP10c (Supplementary Figure 1D); antibody used for the IP not given", "details": "remark: other sources report otherwise", "note": "These are yes or no findings as the source states them, for the method shown. In cells and extracts the contact can be indirect. Some entries that bind do so weakly or less than the wild type. Tags and fused reporters may be left off the sequences shown."}
{"binder": "hemagglutinin (HA)-tagged DPP10c (HA-DPP10c), Q6NXK7 1-797 (protein) MKQEQQPTPGARATQSQPADQELGSNSPPQRNWKGIAIALLVILVVCSLITMSVILLTPDELTNSSETRLSLEELLGKGFGLHNPEPRWINDTVVVYKTNNGHVMKLNTESNASTLLLDNSTFVTFKASRHSLSPDLKYVLLAYDVKQIFHYSFTASYLIYNIHTGEVWELNPPEVEDSVLQYAAWGVQGQQLIYIFENNIYYQPDIKSSSLRLTSSGKEGIIFNGIADWLYEEELLHSHIAHWWSPDGERLAFLMINDSLVPNMIIPRFTGALYPKAKQYPYPKAGQANPSVKLYVVNLYGPTHTLELMPPDIFKSREYYITMVKWVSNTRTVVRWLNRPQNISILTLCESTTGACSRKYEMTSDTWLSKQNEEPVFSRDGSKFFMTVPVKQGGRGEFHHIAMFLVQSKSEQITVRHLTSGNWEVIRILAYDETTQKIYFLSTESSPQGRQLYSASTEGLLNRDCISCNFMKEDCTYFDASFSPMNQHFLLFCEGPKVPVVSLHITDNPSRYFLLENNSVMKETIQKKKLAKRETRILHIDDYELPLQLSFPKDFMEKNQYALLLIMDEEPGGQMVTDKFHVDWDSVLIDTDNVIVARFDGRGSGFQGLKVLQEIHRRIGSVEAKDQVAAVKYLLKQPYIDSKRLSIFGKGYGGYIASMILKSDEKFFKCGAVVAPISDMKLYASAFSERYLGMPSKEESTYQASSVLHNIHGLKEENLLIIHGTADTKVHFQHSAELIKHLIKAGVNYTLQVYPDEGYHISDKSKHHFYSTILRFFSDCLKEEVSVLPQEPEEDE", "values": [{"measurement": "binding", "result": "binds"}]}
